Laboratory results: PubChem BioAssay AID493014 (National Center for Advancing Translational Sciences (NCATS), 2011)
In all, about 340,000 compounds went through this assay and about 170 (0.05%) were called active. The shares of active, inactive and inconclusive entries below differ from those in the screen. The call rests on the fitted dose curve; in most records, active means well fitted inhibition curve with a large enough effect in the signal ratio, with a control signal flat (not every such curve was filed as active); inconclusive means small, poorly fitted or top-dose-only effect, or effect the other way, or a change in a side signal; inactive means flat fitted curve, though single readings scatter; the % refers to the signal ratio. Potencies of inconclusive entries are doubtful fits and often do not repeat.

test: qHTS Assay to Find Inhibitors of Chronic Active B-Cell Receptor Signaling; conditions: ABC-DLBCL IkBa-CBG/CBR reporter, luminescence ratio (green luciferase fused to IkBa over red control in TMD8 lymphoma cells), 4 h; activity change, negative = inhibition: at 46.1 µM (top of the series) unless noted;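 on activity change, negative = inhibition: plate controls were basal doxycycline-induced cells for no effect and cells given 10 µM MG132 for full effect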
Method in brief: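 Compounds up to 46 uM were incubated four hours with TMD8 cells whose green CBG68 luciferase is fused to IkappaBalpha; red CBR luminescence normalised the signal, and concentration-effect curves were fitted to fusion, red and ratio data.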
Potency means the concentration at half of the fitted maximal effect.

| SMILES | activity change, negative = inhibition | Potency |
| --- | --- | --- |
| CCN(CC)CCCn1c(=S)[nH]c2cc(OC)c(OC)cc2c1=O | inconclusive: 19% | – |
| CN1C(=O)c2oc3ccccc3c(=O)c2C1c1ccccn1 (stereo not given) | inconclusive: 1.16% | – |
| S=c1[nH]nc(-c2ccc(Br)o2)n1Cc1ccccc1 | inconclusive: 15.3% | – |
| Cc1ccccc1Nc1nc(N)nc(COC(=O)c2c(C)noc2C)n1 | inconclusive: -2.3% | – |
| CCCCN(CC)CCCNC(=O)c1cc2c(=O)n(CC)c3ccccc3c2s1 | inconclusive: -11.2% | – |
| CCCCCCCCC(=O)N/N=C(\C)c1ccc(O)cc1O | inactive: -0.234% | – |
| CC1CN(c2ncnc3c2oc2ccccc23)CC(C)O1 (stereo not given) | inconclusive: -5.08% | – |
| CCOC(=O)C(=CNc1ccc(Oc2cccnc2)nc1)C(=O)OCC | inconclusive: 3.04% | – |
| O=C(CSc1nnc(-c2cccs2)o1)N1CCOCC1 | inconclusive: 0.62% | – |
| O=C(CCC(=O)Nc1ccccc1Cl)NNC(=O)COc1ccc([N+](=O)[O-])cc1 | inactive: 3.62% | – |
| OCC1(Cc2ccccc2)CCCN(Cc2ccc3c(c2)OCCO3)C1 (stereo not given) | inconclusive: 8.5% | – |
| O=C(CSc1nnc2ccccn12)Nc1ccccc1C(=O)O | – | inconclusive: 20 µM [falling, partial curve] |
| O=C(/C=C/c1ccccc1Cl)NNC(=O)c1ccncc1 | – | inconclusive: 18.4 µM [falling, partial curve] |
| CCSC1=N/C(=C\c2cccc(F)c2)C(=O)S1 | inconclusive: 9.7% | – |
| CC(=C/c1ccccc1)/C=N/NC(=O)CSc1nc(C)cc(C)n1 | inactive: 1.9% | – |
| Fc1ccc(C2c3[nH]c4ccccc4c3CCN2Cc2ccoc2)cc1 (stereo not given) | inconclusive: 9.44% | – |
| NC(=S)N/N=C1\CC(n2nnnc2-c2ccccc2)C2COC1O2 (stereo not given) | – | inconclusive: 35.5 µM [falling, partial curve, poor fit] |
| Cc1cccc(CN2CCN(CC(C)C)C(CCO)C2)n1 (stereo not given) | inconclusive: 3.57% | – |
| CC(c1ccccc1)N1C(=O)c2ccc(C(=O)NCc3ccco3)cc2C1=O (stereo not given) | inconclusive: 11.9% | – |
| Cc1ccnc(NC(=O)c2ccc3c(c2)OCO3)c1 | – | inconclusive: 25.1 µM [falling, partial curve] |
| Cc1ccc2[nH]cc(/C=C/c3cc[n+](C)cc3)c2c1 | inactive: -2% | – |
| CS(=O)(=O)Nc1cccc(-c2cnc3ccccc3n2)c1 | inconclusive: -0.848% | – |

| SMILES | activity change, negative = inhibition | Potency |
| --- | --- | --- |
| CCCCN1C(=O)C(O)(CC(=O)c2ccco2)c2cc(Br)ccc21 (stereo not given) | – | inconclusive: 29.1 µM [falling, single point] |
| O=C(Nc1ccc([N+](=O)[O-])cc1)N1CCCCCC1 | inactive: 5.74% | – |
| COc1ccc(-c2nnc(SCC(=O)NC(=O)NCc3ccco3)o2)cc1 | inactive: -9.2% | – |
| Cc1ccc(C)c(NC(=O)c2ccc(OCc3c(C)noc3C)cc2)c1 | – | inconclusive: 18.4 µM [falling, partial curve, poor fit] |
| COC(=O)CCCC(=O)NCC1(N(C)Cc2ccccc2)Cc2ccccc2C1 | inactive: 0.798% | – |
| CC(=O)C(=Cc1cn(-c2ccccc2)nc1-c1ccccc1)C(C)=O | inactive: -0.393% | – |
| COc1ccc(OC)c(S(=O)(=O)N2CCC(C(=O)NCc3ccccc3OC)CC2)c1 | inconclusive: -0.622% | – |
| C/C=C\C(=O)Nc1cccc(C2=NOC3(C2)C[C@@H](C(N)=O)N(C(=O)C2(C)CC2)C3)c1 (stereo not given in full) | inactive: -7.53% | – |
| O=C(Cn1cnc2cc([N+](=O)[O-])ccc2c1=O)NC1CCS(=O)(=O)C1 (stereo not given) | – | inconclusive: 22.4 µM [falling, single point] |
| Cc1cc(S(=O)(=O)N2CCN(c3ccccc3O)CC2)c(C)s1 | inconclusive: 6.74% | – |
| CCCS(=O)(=O)N1CCCC(C(=O)NCCc2ccc(OC)c(OC)c2)C1 (stereo not given) | inconclusive: 3% | – |
| Cc1cc(N2CCOCC2)ccc1/C=C1/SC(=O)NC1=O | inactive: 9.26% | – |
| COc1ccc(C(=O)OCc2ccc(C)cc2)cc1S(=O)(=O)N1CCOCC1 | inconclusive: -1.03% | – |
| Cc1ccc(-n2ncc3c(N4CCCC4)ncnc32)c(C)c1 | inconclusive: -27.6% | – |
| COc1ccc([N+](=O)[O-])cc1NC(=O)CC(C)c1ccccc1 (stereo not given) | inconclusive: 10.7% | – |
| CCN(C(=O)c1ccc(NC(=O)c2ccco2)cc1)c1ccccc1 | inactive: 10.7% | – |
| Cc1cc(=O)n2[nH]c(C)c(-c3ccc(Cl)cc3)c2n1 | inconclusive: 0.187% | – |
| COc1cccc(/C=C2\SC(=S)N(CCC(=O)NNC(=O)c3ccccc3OC)C2=O)c1 | – | inconclusive: 22.4 µM [falling, single point] |
| COc1ccc(C2=NS(=O)(=O)N(C)C(C(=O)N(C)Cc3ccccc3)=C2)cc1OC | inactive: -16.8% | – |
| O=S(=O)(N1CCCCC1)N1CCN(CC(O)COc2ccc3cc(Br)ccc3c2)CC1 (stereo not given) | inconclusive: -15.2% | – |
| COc1ccc(N(C(=O)c2ccccc2C)S(=O)(=O)c2cccs2)cc1 | inconclusive: -17.3% | – |
| COc1ccccc1NC(C)C(=O)Nc1ccc(C(C)=O)cc1 (stereo not given) | inconclusive: -0.106% | – |

| SMILES | activity change, negative = inhibition | Potency |
| --- | --- | --- |
| Cc1ccc(C)c(S(=O)(=O)NCC(c2ccco2)N2CCc3ccccc3C2)c1 (stereo not given) | inconclusive: 9.06% | – |
| CC(=O)c1cccc(NC(=O)Nc2ccc3c(c2)CCC3)c1 | inconclusive: -1.79% | – |
| CCOc1cc(CNCCCN2CCOCC2)cc(Br)c1OCc1ccccc1Cl | inconclusive: -18.6% | – |
| COc1cc(/C=N/Nc2nn3cnnc3c3ccccc23)ccc1O | inconclusive: -17.8% | – |
| O=C1C=C(c2ccc(F)cc2OCc2ccccc2)C[C@@H](c2ccc(Cl)cc2)C1 | inconclusive: 4.88% | – |
| CCOC(=O)C1CCN(C(=O)COc2ccc(Cl)cc2Cl)CC1 | inconclusive: -17% | – |
| CC(=O)Oc1ccc(OC(C)=O)c(SCCCCCN2CCOCC2)c1 | inconclusive: 20.8% | – |
| Cc1c(NC(=O)c2ncn[nH]2)cccc1-c1nc2ccccc2s1 | – | inconclusive: 16.4 µM [falling, single point] |
| Cc1cccc(-c2n[nH]c(=S)n2Cc2ccccc2)c1 | inactive: -10.7% | – |
| COc1cc2[nH]c(C(=O)NCc3ccccc3)cc2c(OC)c1OC | inconclusive: -7.68% | – |
| N#C/C(=C\c1ccc[nH]1)C(=O)Nc1ccccc1[N+](=O)[O-] | inactive: -20.6% | – |
| CCC(N=c1cc(-c2ccc(OC)c(OC)c2)oc2ccc(C)cc12)C(=O)O (stereo not given) | inconclusive: 4.54% | – |
| Cc1nn(-c2ccccc2)c2c1C(c1ccccc1)C(C#N)=C(N)O2 (stereo not given) | inconclusive: 4.2% | – |
| COC(=O)c1ccc(NC(=O)c2ccccc2)o1 | inconclusive: -23.4% | – |
| COc1ccc(CN(C#N)c2nc(SC)nc(N(C)C)n2)cc1 | inconclusive: -5.56% | – |
| O=C(CSc1nc(-c2ccco2)cc(C(F)(F)F)n1)Nc1ccccc1C(F)(F)F | inactive: 0.297% | – |
| Cc1[nH]nc(-c2ccc(O)cc2O)c1-c1nc2ccccc2s1 | inconclusive: -5.43% | – |
| Cc1cc(Cl)ccc1OCC(=O)NCCOc1nc(N2CCCCC2)nc(N2CCOCC2)n1 | inactive: -1.92% | – |
| Cc1sc2ncnc(NCc3ccccc3)c2c1C | inconclusive: -1.22% | – |
| COc1cccc(CN(C)C(=O)c2ccc(C)c(S(=O)(=O)N3CCCCC3)c2)c1 | inactive: 1.21% | – |
| COc1ccsc1NC(=O)OCc1ccc(Cl)cc1 | inactive: -2.97% | – |
| Cc1cc(=O)[nH]c2ccc(S(=O)(=O)Nc3ccc(O)cc3)cc12 | – | inconclusive: 8.91 µM [falling, partial curve] |

| SMILES | activity change, negative = inhibition | Potency |
| --- | --- | --- |
| O=C(CCNS(=O)(=O)c1ccccc1)N1CCOCC1 | inconclusive: -1.32% | – |
| CCOC(=O)CN(C(=O)c1snc(C(N)=O)c1N)C(C(=O)NC1CCCCC1)c1ccc(F)cc1 (stereo not given) | inconclusive: 1.77% | – |
| COc1cc(Cl)c(C)cc1NC(=S)NN | – | inconclusive: 35.5 µM [falling, single point] |
| COc1ccc(OC)c(/C=N/NC(=O)CCN2CCN(C(c3ccccc3)c3ccccc3)CC2)c1 | inactive: 1.06% | – |
| COc1ccc(-c2cc(C(=O)OCC(=O)N(C)C3CCS(=O)(=O)C3)c3ccccc3n2)cc1OC (stereo not given) | – | inconclusive: 10 µM [falling, partial curve] |
| COc1ccc(S(=O)(=O)Nc2ccc(-n3cccc3)cc2)cc1 | inconclusive: 2.1% | – |
| O=C(O)CCCCC1SCC2NC(=O)NC21 (stereo not given) | inconclusive: 5.12% | – |
| CCN1C(=O)c2ccccc2S(=O)c2ccc(C(=O)N3CCCCCC3)cc21 (stereo not given) | inconclusive: 23.9% | – |
| CC(=O)Nc1ccc(S(=O)(=O)NCCC(=O)OCc2csc(CC(=O)Nc3ccccc3C)n2)cc1 | inconclusive: -8.16% | – |
| CCn1cc(CNC(=O)C2C3CCC(C3)C2C(=O)O)cn1 (stereo not given) | inconclusive: 8.67% | – |
| Cc1cc(NC(=O)C(C)SCC(=O)N(C)CC(=O)Nc2ccc(Br)cc2C)no1 (stereo not given) | – | inconclusive: 35.5 µM [falling, partial curve, poor fit] |
| CCOC(=O)C1C(c2cc(OC)c(OC)c(OC)c2)NC(=S)NC1(O)C(F)(F)F (stereo not given) | inconclusive: 2.69% | – |
| COc1cc(/C(C)=N\NC(N)=S)cc(OC)c1OC | inconclusive: -13.5% | – |
| COc1ccc(Nc2nc(C)cc(C)c2C(N)=O)cc1 | – | inconclusive: 6.51 µM [rising, full curve, poor fit] |
| CC(=O)N1CCN(c2ccc(NC(=O)c3ccc(Cl)c([N+](=O)[O-])c3)cc2)CC1 | inconclusive: 4.3% | – |
| Cc1cc(C(=O)Nc2ccc(Br)cn2)sc1C | – | inconclusive: 23.1 µM [falling, single point] |
| Nc1cccc2cc(-c3ccccc3)oc12 | inconclusive: 8.64% | – |
| O=C(NNC(=S)NC(=O)c1cccs1)c1ccc(O)cc1 | – | inconclusive: 5.62 µM [rising, single point] |
| CN(C)S(=O)(=O)c1ccc(C(=O)NCc2nc3ccccc3s2)cc1 | inconclusive: -2.47% | – |

18 compounds from above, ordered by number of heavy atoms, low to high:

| SMILES | activity change, negative = inhibition | Potency |
| --- | --- | --- |
| COc1cc(Cl)c(C)cc1NC(=S)NN | – | inconclusive: 35.5 µM [falling, single point] |
| O=C(O)CCCCC1SCC2NC(=O)NC21 (stereo not given) | inconclusive: 5.12% | – |
| CCSC1=N/C(=C\c2cccc(F)c2)C(=O)S1 | inconclusive: 9.7% | – |
| COC(=O)c1ccc(NC(=O)c2ccccc2)o1 | inconclusive: -23.4% | – |
| Cc1cc(=O)n2[nH]c(C)c(-c3ccc(Cl)cc3)c2n1 | inconclusive: 0.187% | – |
| COc1ccc(Nc2nc(C)cc(C)c2C(N)=O)cc1 | – | inconclusive: 6.51 µM [rising, full curve, poor fit] |
| Cc1cc(N2CCOCC2)ccc1/C=C1/SC(=O)NC1=O | inactive: 9.26% | – |
| COc1ccc(S(=O)(=O)Nc2ccc(-n3cccc3)cc2)cc1 | inconclusive: 2.1% | – |
| Cc1c(NC(=O)c2ncn[nH]2)cccc1-c1nc2ccccc2s1 | – | inconclusive: 16.4 µM [falling, single point] |
| CCN(C(=O)c1ccc(NC(=O)c2ccco2)cc1)c1ccccc1 | inactive: 10.7% | – |
| CCOC(=O)C(=CNc1ccc(Oc2cccnc2)nc1)C(=O)OCC | inconclusive: 3.04% | – |
| COc1ccc(-c2nnc(SCC(=O)NC(=O)NCc3ccco3)o2)cc1 | inactive: -9.2% | – |
| CCN1C(=O)c2ccccc2S(=O)c2ccc(C(=O)N3CCCCCC3)cc21 (stereo not given) | inconclusive: 23.9% | – |
| CCCCN(CC)CCCNC(=O)c1cc2c(=O)n(CC)c3ccccc3c2s1 | inconclusive: -11.2% | – |
| CCOc1cc(CNCCCN2CCOCC2)cc(Br)c1OCc1ccccc1Cl | inconclusive: -18.6% | – |
| O=S(=O)(N1CCCCC1)N1CCN(CC(O)COc2ccc3cc(Br)ccc3c2)CC1 (stereo not given) | inconclusive: -15.2% | – |
| COc1ccc(-c2cc(C(=O)OCC(=O)N(C)C3CCS(=O)(=O)C3)c3ccccc3n2)cc1OC (stereo not given) | – | inconclusive: 10 µM [falling, partial curve] |
| CC(=O)Nc1ccc(S(=O)(=O)NCCC(=O)OCc2csc(CC(=O)Nc3ccccc3C)n2)cc1 | inconclusive: -8.16% | – |
